# Measured values taken from publication PMC5718073.
# Protein sequences, listed by entry. Tags and fused reporters are not part of them. Lines headed by an entry give the natural chain unless they say otherwise; changes in a name come on top.
# UniProt Q9V460: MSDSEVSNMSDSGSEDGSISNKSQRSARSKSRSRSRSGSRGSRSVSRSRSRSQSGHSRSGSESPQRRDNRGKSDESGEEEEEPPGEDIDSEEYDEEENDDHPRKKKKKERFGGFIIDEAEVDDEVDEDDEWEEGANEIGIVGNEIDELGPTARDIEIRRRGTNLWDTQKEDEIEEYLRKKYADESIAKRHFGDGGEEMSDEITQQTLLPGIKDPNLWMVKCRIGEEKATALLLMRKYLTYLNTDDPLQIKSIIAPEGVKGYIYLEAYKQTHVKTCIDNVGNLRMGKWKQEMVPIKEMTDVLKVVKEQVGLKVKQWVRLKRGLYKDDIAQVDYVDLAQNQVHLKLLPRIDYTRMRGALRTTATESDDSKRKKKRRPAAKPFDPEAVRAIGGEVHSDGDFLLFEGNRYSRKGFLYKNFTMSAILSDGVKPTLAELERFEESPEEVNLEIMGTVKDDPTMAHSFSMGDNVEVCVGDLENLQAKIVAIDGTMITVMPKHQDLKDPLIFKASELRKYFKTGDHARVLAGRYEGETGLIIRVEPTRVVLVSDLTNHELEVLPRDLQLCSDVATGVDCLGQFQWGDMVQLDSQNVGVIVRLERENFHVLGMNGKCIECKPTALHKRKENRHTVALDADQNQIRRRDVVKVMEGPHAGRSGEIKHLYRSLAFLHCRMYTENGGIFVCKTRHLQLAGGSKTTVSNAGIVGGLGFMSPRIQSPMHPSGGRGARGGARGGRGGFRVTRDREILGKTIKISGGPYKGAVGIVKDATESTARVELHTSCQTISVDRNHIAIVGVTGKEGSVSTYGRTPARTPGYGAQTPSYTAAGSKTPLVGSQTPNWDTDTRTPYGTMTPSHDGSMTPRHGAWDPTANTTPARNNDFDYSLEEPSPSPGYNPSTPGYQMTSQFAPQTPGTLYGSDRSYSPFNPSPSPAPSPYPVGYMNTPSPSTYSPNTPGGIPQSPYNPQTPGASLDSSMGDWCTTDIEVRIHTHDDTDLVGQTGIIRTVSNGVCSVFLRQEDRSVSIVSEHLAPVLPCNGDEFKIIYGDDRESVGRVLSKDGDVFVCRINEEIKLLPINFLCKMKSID
# UniProt Q8ST83: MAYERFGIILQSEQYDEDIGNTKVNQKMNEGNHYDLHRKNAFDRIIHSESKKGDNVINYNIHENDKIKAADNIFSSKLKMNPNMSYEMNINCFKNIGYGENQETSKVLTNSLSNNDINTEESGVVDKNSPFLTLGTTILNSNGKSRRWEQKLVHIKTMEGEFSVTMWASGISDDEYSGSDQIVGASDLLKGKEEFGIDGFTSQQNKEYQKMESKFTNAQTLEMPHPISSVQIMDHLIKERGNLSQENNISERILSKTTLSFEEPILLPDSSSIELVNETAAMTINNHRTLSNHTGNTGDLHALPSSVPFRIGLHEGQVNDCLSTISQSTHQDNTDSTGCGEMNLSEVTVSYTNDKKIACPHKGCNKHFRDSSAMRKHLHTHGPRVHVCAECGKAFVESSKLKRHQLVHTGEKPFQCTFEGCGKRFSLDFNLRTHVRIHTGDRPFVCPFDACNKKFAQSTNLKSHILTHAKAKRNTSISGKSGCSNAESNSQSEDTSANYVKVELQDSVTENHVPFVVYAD
# Target: FLAG-tagged Spt5 (Drosophila) (UniProt Q9V460)
# Assay: co-IP; S2 DRSC cells transiently co-transfected with a FLAG-tagged and an HA-tagged construct; lysis in 50 mM Tris pH 7.5, 150 mM NaCl, 1% NP40, 1 mM EGTA, 20 mM NaF; anti-FLAG IP on Protein G Dynabeads at 4 °C, anti-HA Western blot; cells at 25 °C, heat shocked (37 °C, 15 min) and recovering, or treated with radicicol, flavopiridol + heat shock, sodium salicylate, HSF or LacZ RNAi
substance,measurement,value
HA-tagged Pho ΔREPO (from UniProt Q8ST83),binding,binds weakly

# No constants are given. Whether binding was seen depends on the method and setting. Binding seen in cells or lysates may run through a third protein. A result given as binding can be weak or reduced; the word gives no strength.
